Assay results taken from doi:10.1101/2023.08.23.554416.
Like-named read-outs stand apart in the source and are kept apart here. Results are given in words; binding and its absence hold for the method and conditions named. Some results given as binding are weak or reduced against the parent protein; the word gives no strength.

T1: LEUCINE-RICH REPEAT EXTENSIN 2 LRR domain (LRX2LRR), residues 1-385 (Arabidopsis thaliana) (UniProt O48809)
T1 sequence: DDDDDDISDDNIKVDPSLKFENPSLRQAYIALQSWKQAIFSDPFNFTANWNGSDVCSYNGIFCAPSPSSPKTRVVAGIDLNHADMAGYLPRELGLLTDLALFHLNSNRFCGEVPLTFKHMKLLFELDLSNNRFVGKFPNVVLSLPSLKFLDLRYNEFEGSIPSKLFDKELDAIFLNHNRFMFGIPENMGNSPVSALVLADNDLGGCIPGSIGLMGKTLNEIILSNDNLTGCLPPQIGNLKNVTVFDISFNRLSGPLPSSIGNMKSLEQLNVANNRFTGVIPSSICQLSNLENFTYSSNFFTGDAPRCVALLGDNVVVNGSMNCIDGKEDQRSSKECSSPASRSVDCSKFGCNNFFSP

T2: LEUCINE-RICH REPEAT EXTENSIN 1 LRR domain (LRX1LRR), residues 28-404 (Arabidopsis thaliana) (UniProt O65375)
T2 sequence: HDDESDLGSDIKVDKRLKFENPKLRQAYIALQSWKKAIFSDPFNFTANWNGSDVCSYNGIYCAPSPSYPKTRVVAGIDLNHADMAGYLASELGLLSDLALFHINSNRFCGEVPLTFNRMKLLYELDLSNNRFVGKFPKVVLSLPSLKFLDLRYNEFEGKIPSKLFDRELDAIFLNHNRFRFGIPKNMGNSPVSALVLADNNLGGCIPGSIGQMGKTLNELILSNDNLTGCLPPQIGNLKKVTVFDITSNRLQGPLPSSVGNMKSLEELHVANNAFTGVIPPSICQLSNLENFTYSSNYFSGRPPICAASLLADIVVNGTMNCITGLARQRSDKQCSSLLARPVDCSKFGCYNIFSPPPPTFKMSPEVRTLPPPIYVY

B1: RALF22 mature peptide, recombinant, co-expressed with LRX1LRR or LRX2LRR (peptide)
peptide: AQKKYISYGAMRRNSVPCSRRGASYYNCQRGAQANPYSRGCSTITRCRR
B2: LEUCINE-RICH REPEAT EXTENSIN 1 LRR domain (LRX1LRR), residues 28-404 (domain or fragment, UniProt O65375 28-404)
chain: T2 sequence
B3: LEUCINE-RICH REPEAT EXTENSIN 2 LRR domain (LRX2LRR), residues 1-385 (domain or fragment, UniProt O48809 29-385)
chain: T1 sequence

How the values were obtained:
Assay in all cases: SEC
[1] = biological target: T1, LEUCINE-RICH REPEAT EXTENSIN 2 LRR domain (LRX2LRR), residues 1-385 (Arabidopsis thaliana)
[2] = biological target: T2, LEUCINE-RICH REPEAT EXTENSIN 1 LRR domain (LRX1LRR), residues 28-404 (Arabidopsis thaliana)
[3] = biological target: T2, LEUCINE-RICH REPEAT EXTENSIN 1 LRR domain (LRX1LRR), residues 28-404 (Arabidopsis thaliana); remark: listed apart in the source

| Binder | binding [1] | binding [2] | binding [3] |
| --- | --- | --- | --- |
| B1 | binds | binds | binds |
| B2 |  | binds |  |
| B3 | binds |  |  |
